According to patent US7192728B2, “Screening assays for agents that alter inhibitor of apoptosis (IAP) protein regulation of caspase activity” (The Burnham Institute, priority 1997, dated 2007):
Some results were stated once for a whole list of compounds, not compound by compound. For at least one compound, name, drawing or mass did not settle the structure.

System: pro-caspase-9
Experiment: Cytochrome c-induced processing of pro-caspase-9 in 293 cytosolic extracts
Format: biochemical, human
Conditions: 10 μM cytochrome c, 1 mM dATP; 30° C., 30 min
Experimental: Cytochrome c induced processing of pro-caspase-9 was subsequently monitored by SDS-PAGE and autoradiography.
Pro-caspase-9 inhibition by Ac-DEVD-fmk, zVAD-fmk and XIAP was compared as follows. In vitro translated ^35S-labeled pro-caspase-9 was added to cytosolic extracts from 293 cells containing 10 μM cytochrome c and 1 mM dATP. Samples were incubated at 30° C. for 30 minutes in the presence of the indicated concentrations of inhibitors. Proteins were separated on SDS-PAGE gels, dried directly, and exposed to film.

With `CC(=O)N[C@@H](CC(=O)O)C(=O)N[C@@H](CCC(=O)O)C(=O)N[C@H](C(=O)N[C@@H](CC(=O)O)C(=O)CF)C(C)C` [Ac-DEVD-fmk, reference compound] the “concentration to completely abolish cytochrome c-mediated processing of pro-caspase-9” value was “at least 5 μM”.
